Consider one substance from PMC10935964.

Chains of the proteins cited; added tags and fusions are not shown.
UniProt Q69022: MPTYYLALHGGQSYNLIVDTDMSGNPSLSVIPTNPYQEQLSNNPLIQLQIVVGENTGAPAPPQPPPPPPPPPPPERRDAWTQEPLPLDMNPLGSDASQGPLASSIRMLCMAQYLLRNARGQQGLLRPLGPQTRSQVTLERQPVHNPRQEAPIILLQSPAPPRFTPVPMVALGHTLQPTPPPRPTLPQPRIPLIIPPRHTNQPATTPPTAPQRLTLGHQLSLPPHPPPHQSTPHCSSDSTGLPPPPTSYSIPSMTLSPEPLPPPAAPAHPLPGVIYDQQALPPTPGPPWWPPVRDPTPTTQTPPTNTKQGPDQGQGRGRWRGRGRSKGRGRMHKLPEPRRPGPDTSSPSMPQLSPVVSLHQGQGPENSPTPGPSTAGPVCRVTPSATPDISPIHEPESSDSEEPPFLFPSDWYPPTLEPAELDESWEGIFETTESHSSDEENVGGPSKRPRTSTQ
UniProt Q06330: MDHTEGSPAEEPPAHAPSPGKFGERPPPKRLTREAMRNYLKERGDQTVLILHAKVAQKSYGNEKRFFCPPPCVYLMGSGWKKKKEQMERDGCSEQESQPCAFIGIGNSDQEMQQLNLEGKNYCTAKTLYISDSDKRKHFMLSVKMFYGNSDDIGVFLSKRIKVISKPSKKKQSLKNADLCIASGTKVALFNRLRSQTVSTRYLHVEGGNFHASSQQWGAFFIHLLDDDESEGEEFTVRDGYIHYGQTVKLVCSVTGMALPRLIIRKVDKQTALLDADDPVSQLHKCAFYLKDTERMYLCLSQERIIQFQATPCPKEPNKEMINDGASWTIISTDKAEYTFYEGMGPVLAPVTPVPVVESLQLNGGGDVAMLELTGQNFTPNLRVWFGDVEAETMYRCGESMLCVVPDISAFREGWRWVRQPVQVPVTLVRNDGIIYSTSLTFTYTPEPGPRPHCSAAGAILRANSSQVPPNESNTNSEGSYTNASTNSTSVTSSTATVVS

Results are given in words; binding and its absence hold for the method and conditions named. In cells and extracts the contact can be indirect. Some results given as binding are weak or reduced against the parent protein; the word gives no strength.

The test addresses Epstein-Barr Nuclear Antigen 2 type 2 (EBV-2, AG876 virus, in AG876 cells) (Epstein-Barr virus type 2, strain AG876 (endogenous in infected AG876 cells)) (UniProt Q69022). The test can be described thus: co-IP; nuclear lysates (500 ug) of Akata (EBV negative), GM12878 (EBV-1) and AG876 (EBV-2); IP with anti-EBNA2 antibody PE2 and Protein A/G beads in Co-IP buffer (1% NP-40, 150 mM NaCl, 10 mM Tris-HCl pH 7.4, 1 mM EDTA, 3% glycerol), 4 C; blots for RBPJ, EBF1, SPI1.

For “recombination signal binding protein for immunoglobulin kappa J region (RBPJ) (from UniProt Q06330 1-500)”, the binding result is “binds”.
